Measurements reported in article PMC5468253.
No constants are given. Whether binding was seen depends on the method and setting. Binding seen in cells or lysates may run through a third protein. Some entries that bind do so weakly or less than the wild type.

Amino acid sequences for entries named in this document (tags omitted). Residues count along the entry.
UniProt Q9NNX6: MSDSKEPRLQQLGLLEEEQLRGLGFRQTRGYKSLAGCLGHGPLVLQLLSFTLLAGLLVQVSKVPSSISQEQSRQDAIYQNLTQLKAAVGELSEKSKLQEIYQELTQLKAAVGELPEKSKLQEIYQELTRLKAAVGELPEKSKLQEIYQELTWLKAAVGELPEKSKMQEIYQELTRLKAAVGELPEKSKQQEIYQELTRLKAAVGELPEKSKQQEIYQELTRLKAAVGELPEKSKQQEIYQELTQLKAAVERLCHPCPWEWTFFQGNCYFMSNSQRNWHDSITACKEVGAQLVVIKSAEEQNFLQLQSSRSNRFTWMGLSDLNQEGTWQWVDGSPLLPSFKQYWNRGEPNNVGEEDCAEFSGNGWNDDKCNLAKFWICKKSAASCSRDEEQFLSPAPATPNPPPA
UniProt O00206, residues 24-839: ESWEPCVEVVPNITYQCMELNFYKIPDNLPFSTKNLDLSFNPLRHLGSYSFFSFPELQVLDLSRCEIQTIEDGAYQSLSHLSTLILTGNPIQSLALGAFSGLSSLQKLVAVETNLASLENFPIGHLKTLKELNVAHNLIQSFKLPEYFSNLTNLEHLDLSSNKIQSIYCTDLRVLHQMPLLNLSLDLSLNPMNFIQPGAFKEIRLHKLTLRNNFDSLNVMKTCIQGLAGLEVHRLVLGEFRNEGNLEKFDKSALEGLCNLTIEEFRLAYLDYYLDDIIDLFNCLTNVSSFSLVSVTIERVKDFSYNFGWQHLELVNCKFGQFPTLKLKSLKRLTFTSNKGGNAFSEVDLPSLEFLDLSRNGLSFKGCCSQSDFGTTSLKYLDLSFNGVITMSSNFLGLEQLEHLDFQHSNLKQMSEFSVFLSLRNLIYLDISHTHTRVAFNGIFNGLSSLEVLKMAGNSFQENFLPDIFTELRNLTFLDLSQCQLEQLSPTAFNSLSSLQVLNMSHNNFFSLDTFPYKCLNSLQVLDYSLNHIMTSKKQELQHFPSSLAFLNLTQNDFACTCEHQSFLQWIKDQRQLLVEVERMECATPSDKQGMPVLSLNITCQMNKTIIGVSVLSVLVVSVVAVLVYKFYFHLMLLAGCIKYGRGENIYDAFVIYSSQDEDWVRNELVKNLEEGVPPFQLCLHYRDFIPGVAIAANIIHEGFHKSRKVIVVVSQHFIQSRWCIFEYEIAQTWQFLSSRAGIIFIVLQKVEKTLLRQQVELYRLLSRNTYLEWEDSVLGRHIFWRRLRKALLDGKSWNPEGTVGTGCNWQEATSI

Assays:
[1] = target: dendritic cell-specific intercellular adhesion molecule-3-grabbing non-integrin (DC-SIGN) (human (endogenous in primary monocyte-derived macrophages)) (UniProt Q9NNX6); assay: co-IP; lysates of human primary macrophages incubated with oxLDL (0, 12.5, 25 and 50 μg/ml) for 6 hours; immunoprecipitated with a DC-SIGN antibody (Pierce Crosslink Immunoprecipitation Kit), blotted for TLR4
[2] = target: FLAG-DC-SIGN (human) (UniProt Q9NNX6); assay: pull-down; FLAG-DC-SIGN from HEK293 lysate (10 μg) adsorbed onto anti-FLAG M2 beads, washed six times, incubated overnight at 4 °C with His-TLR4 HEK293 lysate (10 μg) in 140 mM NaCl, 10 mM Na2HPO4, 1.8 mM KH2PO4, pH 7.5; eluted with FLAG peptide; immunoblot; only the target purified

| binding [1] | binding [2] | Substance |
| --- | --- | --- |
| binds | – | Toll-like receptor 4 (TLR4) (from UniProt O00206 24-839) |
| – | binds | His-TLR4 (from UniProt O00206 24-839) (receptor) |
